The supplement of paper PMC10849652
The list shows a part of the results.

Protein sequences, listed by entry. Tags and fused reporters are not part of them. Lines headed by an entry give the natural chain unless they say otherwise; changes in a name come on top.
UniProt Q9H5J4: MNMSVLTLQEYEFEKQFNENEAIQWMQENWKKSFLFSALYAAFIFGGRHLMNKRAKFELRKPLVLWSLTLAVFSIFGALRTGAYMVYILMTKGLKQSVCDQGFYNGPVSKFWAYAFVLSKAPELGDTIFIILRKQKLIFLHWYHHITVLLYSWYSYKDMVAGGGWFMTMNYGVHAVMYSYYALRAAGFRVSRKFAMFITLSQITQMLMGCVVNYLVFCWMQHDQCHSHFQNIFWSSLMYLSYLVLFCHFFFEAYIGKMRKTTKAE
UniProt P49770: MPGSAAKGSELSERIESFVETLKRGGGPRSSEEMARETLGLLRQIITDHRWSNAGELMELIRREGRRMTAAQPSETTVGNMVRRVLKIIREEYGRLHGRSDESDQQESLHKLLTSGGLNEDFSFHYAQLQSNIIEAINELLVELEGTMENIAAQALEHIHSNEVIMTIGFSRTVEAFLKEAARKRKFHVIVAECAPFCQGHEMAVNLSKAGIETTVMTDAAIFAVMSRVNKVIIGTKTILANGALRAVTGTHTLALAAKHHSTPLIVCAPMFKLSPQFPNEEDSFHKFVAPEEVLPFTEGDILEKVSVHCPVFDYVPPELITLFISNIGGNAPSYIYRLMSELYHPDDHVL
UniProt Q8IZ81: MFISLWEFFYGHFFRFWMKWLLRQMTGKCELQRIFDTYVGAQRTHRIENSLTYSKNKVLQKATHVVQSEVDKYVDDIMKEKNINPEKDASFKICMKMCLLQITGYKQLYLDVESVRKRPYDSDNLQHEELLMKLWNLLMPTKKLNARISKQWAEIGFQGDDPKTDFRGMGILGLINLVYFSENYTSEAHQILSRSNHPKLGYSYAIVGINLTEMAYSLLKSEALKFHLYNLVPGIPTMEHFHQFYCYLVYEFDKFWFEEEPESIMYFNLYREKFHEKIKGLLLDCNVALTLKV
UniProt O15371, whole entry, looked up: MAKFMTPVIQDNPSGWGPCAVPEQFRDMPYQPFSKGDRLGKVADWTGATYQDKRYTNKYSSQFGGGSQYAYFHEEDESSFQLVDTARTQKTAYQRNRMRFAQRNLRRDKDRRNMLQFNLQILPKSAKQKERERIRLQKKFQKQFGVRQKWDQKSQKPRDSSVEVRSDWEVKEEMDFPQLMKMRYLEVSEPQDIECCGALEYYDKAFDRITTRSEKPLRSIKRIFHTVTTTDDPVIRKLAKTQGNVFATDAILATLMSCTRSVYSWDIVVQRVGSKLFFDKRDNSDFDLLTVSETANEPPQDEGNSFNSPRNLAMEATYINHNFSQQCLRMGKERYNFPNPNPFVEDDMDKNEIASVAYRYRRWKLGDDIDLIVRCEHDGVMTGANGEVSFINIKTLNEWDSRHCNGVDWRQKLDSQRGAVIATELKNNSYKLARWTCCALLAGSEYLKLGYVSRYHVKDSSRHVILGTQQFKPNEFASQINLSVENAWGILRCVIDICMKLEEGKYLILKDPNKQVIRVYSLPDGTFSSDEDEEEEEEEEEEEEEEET
UniProt Q12805: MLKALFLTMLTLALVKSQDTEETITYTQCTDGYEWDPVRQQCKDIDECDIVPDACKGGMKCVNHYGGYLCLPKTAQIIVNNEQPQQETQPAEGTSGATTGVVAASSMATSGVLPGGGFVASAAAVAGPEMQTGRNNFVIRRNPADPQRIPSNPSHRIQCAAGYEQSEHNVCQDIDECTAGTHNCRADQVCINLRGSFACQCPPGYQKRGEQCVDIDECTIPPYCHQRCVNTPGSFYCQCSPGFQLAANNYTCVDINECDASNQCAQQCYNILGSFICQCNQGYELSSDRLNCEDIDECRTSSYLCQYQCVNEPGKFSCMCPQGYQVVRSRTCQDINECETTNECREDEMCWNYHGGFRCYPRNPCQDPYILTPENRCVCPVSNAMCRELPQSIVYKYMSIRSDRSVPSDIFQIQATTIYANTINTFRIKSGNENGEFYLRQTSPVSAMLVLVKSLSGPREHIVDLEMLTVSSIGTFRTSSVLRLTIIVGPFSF
UniProt Q99613, whole entry, looked up: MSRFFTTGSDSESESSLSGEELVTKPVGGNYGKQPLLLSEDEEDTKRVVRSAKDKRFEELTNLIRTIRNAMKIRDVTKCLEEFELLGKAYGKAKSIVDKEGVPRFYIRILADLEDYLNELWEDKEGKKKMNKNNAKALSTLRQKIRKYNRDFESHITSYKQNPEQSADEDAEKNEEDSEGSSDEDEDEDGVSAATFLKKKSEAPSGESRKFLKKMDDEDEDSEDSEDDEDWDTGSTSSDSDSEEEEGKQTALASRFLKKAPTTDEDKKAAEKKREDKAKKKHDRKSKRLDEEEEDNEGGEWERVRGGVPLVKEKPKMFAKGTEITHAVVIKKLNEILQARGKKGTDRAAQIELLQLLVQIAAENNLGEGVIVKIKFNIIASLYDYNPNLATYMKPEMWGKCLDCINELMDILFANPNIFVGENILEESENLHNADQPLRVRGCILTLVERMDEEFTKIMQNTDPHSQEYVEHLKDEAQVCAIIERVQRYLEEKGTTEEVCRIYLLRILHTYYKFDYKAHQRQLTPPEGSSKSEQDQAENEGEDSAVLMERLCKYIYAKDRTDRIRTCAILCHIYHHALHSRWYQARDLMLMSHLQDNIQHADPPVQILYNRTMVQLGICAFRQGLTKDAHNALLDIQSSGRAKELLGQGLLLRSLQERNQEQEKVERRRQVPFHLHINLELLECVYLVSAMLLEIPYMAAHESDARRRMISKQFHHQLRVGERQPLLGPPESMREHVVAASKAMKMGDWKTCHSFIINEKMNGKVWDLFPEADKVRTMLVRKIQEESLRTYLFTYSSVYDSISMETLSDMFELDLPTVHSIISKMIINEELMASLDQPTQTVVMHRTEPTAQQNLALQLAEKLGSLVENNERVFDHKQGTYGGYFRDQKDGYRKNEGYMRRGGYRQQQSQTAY
UniProt Q9UI10, whole entry, looked up: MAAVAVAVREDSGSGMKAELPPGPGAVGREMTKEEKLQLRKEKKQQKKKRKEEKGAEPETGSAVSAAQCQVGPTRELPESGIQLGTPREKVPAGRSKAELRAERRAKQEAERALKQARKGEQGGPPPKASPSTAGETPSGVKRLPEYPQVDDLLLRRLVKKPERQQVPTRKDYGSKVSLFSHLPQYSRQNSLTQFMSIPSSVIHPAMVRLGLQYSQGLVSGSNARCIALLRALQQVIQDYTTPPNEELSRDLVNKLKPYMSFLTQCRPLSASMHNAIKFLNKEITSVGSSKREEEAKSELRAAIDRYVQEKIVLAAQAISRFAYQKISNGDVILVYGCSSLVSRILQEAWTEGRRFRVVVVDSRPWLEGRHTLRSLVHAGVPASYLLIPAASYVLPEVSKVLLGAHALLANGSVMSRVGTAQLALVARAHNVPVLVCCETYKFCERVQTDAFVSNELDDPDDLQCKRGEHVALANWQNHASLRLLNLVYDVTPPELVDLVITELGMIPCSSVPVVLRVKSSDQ
UniProt P55199: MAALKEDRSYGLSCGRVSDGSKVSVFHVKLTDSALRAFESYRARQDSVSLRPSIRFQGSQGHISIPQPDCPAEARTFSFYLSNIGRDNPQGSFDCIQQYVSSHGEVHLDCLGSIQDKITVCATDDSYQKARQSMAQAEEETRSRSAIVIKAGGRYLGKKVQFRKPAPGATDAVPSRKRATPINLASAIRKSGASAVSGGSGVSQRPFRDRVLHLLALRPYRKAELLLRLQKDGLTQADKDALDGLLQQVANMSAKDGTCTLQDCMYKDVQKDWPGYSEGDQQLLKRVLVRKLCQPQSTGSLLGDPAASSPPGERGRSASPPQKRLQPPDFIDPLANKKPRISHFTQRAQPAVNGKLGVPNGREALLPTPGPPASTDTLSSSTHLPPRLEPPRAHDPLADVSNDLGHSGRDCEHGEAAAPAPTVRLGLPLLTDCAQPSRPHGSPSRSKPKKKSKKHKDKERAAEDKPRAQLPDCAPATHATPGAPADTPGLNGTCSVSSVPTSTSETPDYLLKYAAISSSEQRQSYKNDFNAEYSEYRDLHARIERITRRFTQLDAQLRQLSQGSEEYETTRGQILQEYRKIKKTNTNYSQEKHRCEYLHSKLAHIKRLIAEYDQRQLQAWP
UniProt Q0PNE2: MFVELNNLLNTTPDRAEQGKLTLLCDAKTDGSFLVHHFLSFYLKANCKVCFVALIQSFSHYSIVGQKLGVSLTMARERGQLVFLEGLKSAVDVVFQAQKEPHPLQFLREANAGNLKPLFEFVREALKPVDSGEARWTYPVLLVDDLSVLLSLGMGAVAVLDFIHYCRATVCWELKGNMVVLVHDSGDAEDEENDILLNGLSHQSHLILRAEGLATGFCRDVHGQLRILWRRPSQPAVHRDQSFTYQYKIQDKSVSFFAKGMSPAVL
UniProt O75354: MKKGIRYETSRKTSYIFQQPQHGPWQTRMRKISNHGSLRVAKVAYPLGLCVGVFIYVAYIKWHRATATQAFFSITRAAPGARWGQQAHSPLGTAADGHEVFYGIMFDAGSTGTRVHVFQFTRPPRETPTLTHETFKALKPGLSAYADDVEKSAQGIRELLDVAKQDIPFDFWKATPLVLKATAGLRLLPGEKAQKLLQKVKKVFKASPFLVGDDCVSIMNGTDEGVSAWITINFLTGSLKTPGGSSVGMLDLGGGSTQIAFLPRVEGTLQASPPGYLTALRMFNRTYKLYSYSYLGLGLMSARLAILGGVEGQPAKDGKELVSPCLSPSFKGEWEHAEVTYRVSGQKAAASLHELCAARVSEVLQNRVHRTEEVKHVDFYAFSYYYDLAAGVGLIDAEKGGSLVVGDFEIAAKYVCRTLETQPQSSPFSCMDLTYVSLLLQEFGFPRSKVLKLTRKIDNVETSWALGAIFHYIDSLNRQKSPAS
UniProt P57772: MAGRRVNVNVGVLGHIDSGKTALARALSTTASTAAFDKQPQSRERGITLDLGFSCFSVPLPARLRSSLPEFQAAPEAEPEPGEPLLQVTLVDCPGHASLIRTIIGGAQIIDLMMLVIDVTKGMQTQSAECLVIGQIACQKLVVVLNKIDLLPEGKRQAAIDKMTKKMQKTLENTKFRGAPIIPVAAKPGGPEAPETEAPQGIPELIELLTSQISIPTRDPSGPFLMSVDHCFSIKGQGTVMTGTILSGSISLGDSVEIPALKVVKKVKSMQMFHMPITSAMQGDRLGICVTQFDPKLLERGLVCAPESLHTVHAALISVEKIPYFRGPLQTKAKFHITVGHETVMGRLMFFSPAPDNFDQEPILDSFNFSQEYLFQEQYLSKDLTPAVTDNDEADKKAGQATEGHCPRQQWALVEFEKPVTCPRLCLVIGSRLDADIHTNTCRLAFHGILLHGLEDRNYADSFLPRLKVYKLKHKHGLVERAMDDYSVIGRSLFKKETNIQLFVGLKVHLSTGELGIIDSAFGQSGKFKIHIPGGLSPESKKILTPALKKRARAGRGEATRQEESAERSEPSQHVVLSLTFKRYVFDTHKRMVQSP
UniProt O15372, whole entry, looked up: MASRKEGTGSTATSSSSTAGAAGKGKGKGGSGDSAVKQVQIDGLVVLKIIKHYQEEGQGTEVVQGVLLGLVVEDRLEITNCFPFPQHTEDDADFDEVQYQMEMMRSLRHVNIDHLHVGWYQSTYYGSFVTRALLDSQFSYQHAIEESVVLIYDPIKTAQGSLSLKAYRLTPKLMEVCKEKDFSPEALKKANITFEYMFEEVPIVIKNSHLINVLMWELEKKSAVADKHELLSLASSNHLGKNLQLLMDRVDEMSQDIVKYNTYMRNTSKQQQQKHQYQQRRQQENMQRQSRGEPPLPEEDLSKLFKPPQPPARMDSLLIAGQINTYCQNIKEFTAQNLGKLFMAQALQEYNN
UniProt O14638, whole entry, looked up: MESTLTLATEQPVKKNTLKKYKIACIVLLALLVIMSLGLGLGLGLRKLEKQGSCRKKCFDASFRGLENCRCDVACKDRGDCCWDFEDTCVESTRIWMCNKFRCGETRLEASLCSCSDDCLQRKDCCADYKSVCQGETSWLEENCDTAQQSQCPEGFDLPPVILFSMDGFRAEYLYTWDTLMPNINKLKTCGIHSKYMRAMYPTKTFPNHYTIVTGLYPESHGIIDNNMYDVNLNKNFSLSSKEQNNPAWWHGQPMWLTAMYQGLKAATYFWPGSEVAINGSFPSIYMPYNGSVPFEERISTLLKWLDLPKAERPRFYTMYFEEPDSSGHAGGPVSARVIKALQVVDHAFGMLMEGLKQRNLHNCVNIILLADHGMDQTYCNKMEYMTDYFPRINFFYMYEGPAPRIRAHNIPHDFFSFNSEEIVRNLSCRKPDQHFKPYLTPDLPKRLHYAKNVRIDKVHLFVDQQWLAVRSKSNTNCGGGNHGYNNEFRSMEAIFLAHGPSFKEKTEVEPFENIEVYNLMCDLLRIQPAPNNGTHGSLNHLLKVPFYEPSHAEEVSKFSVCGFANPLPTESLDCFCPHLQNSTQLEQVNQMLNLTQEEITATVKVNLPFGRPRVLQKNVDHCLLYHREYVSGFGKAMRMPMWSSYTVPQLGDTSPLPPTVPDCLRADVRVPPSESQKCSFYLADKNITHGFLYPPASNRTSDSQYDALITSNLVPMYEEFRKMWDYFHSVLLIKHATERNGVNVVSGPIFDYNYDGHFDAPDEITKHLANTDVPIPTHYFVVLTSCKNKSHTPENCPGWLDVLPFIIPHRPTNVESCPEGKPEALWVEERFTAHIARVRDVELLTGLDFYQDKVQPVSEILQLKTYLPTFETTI

Columns and labels:
Assay in all cases: log2 fold change, soluble protein after heating vs DMSO (PISA); higher = thermal stabilisation; K562 cells, 10 uM, 30 min; active = over 0.2 and 3.5 SD of the protein, either way, in both replicates (recomputed)
saracatinib = compound: CN1CCN(CCOc2cc(OC3CCOCC3)c3c(Nc4c(Cl)ccc5c4OCO5)ncnc3c2)CC1 [saracatinib]
How it was run: (§1)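 Thermal stability values are relative to control samples and come from duplicates. They are expressed as log2 fold changes. For measurement, K562 cells (2×10^6 cells/mL) received 10 μM compound for 30 min, and aliquots were heated for 3 min over 48°C-58°C, pooled, and extracted at 4°C in PBS with 0.5% NP-40. Soluble protein, the supernatant after 21,000xg for 90 min, was quantified by TMTpro 16plex LC-MS/MS with equalised channel sums.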

sotrastaurin = compound: CN1CCN(c2nc(C3=C(c4c[nH]c5ccccc45)C(=O)NC3=O)c3ccccc3n2)CC1 [sotrastaurin]
How it was run: as §1

alvocidib = compound: CN1CC[C@H](c2c(O)cc(O)c3c(=O)cc(-c4ccccc4Cl)oc23)[C@H](O)C1 [alvocidib]
How it was run: as §1

Tubastatin A = compound: CN1CCc2c(c3ccccc3n2Cc2ccc(C(=O)NO)cc2)C1 [Tubastatin A]
How it was run: as §1

[1] = compound: CNC(=O)C1=CC=CC=C1NC2=NC(=NC=C2Cl)NC3=C(C=C(C=C3)N4CCOCC4)OC
How it was run: as §1

defactinib = compound: CNC(=O)c1ccc(Nc2ncc(C(F)(F)F)c(NCc3nccnc3N(C)S(C)(=O)=O)n2)cc1 [defactinib]
How it was run: as §1

rucaparib = compound: CNCc1ccc(-c2[nH]c3cc(F)cc4c3c2CCNC4=O)cc1 [rucaparib]
How it was run: as §1

[2] = compound: CNc1nc(-c2ccc3c(N)n[nH]c3c2)cc(N2C[C@@H](C(=O)NC3CCCCC3)CC[C@H]2C)n1
How it was run: as §1

encorafenib = compound: COC(=O)N[C@@H](C)CNc1nccc(-c2cn(C(C)C)nc2-c2cc(Cl)cc(NS(C)(=O)=O)c2F)n1 [encorafenib]
How it was run: as §1

[3] = compound: COC(=O)[C@H](CCSC)NC(=O)C1=C(C=C(C=C1)NC[C@H](CS)N)C2=CC=CC=C2
How it was run: as §1

[4] = compound: COC1=CC=C(C=C1)CN2C=CC3=C2C=C(C=C3)C(=O)NO
How it was run: as §1

filanesib = compound: CON(C)C(=O)N1N=C(c2cc(F)ccc2F)S[C@@]1(CCCN)c1ccccc1 [filanesib]
How it was run: as §1

zotarolimus = compound: CO[C@H]1C[C@@H]2CC[C@@H](C)[C@@](O)(O2)C(=O)C(=O)N2CCCC[C@H]2C(=O)O[C@H]([C@H](C)C[C@@H]2CC[C@H](n3cnnn3)[C@H](OC)C2)CC(=O)[C@H](C)/C=C(\C)[C@@H](O)[C@@H](OC)C(=O)[C@H](C)C[C@H](C)/C=C/C=C/C=C/1C [zotarolimus]
How it was run: as §1

alisertib = compound: COc1cc(Nc2ncc3c(n2)-c2ccc(Cl)cc2C(c2c(F)cccc2OC)=NC3)ccc1C(=O)O [alisertib]
How it was run: as §1

[5] = compound: COc1cc2nc(-c3cc(F)ccc3O)nc(N[C@@H]3CNC[C@H]3C(C)(C)O)c2cc1OC
How it was run: as §1

gefitinib = compound: COc1cc2ncnc(Nc3ccc(F)c(Cl)c3)c2cc1OCCCN1CCOCC1 [gefitinib]
How it was run: as §1

[6] = compound: COc1cccc2cc(-c3nc([C@H]4CC[C@H](C(=O)O)CC4)n4ncnc(N)c34)[nH]c12
How it was run: as §1

lapatinib = compound: CS(=O)(=O)CCNCc1ccc(-c2ccc3ncnc(Nc4ccc(OCc5cccc(F)c5)c(Cl)c4)c3c2)o1 [lapatinib]
How it was run: as §1

idasanutlin = compound: COc1cc(C(=O)O)ccc1NC(=O)[C@@H]1N[C@@H](CC(C)(C)C)[C@](C#N)(c2ccc(Cl)cc2F)[C@H]1c1cccc(Cl)c1F [idasanutlin]
How it was run: as §1

pictilisib = compound: CS(=O)(=O)N1CCN(Cc2cc3nc(-c4cccc5[nH]ncc45)nc(N4CCOCC4)c3s2)CC1 [pictilisib]
How it was run: as §1

Measured: log2 fold change

ELOVL6 (UniProt Q9H5J4)
inactive: saracatinib 0.243 | sotrastaurin -0.011 | alvocidib -0.059 | Tubastatin A -0.047 | [1] -0.088 | defactinib -0.072 | rucaparib -0.014 | [2] 0.039 | encorafenib 0.105 | [3] 0.03 | [4] -0.322 | filanesib 0.172 | zotarolimus -0.022 | alisertib -0.046 | [5] -0.102 | gefitinib -0.046 | [6] -0.115 | lapatinib 0.085

EIF2B2 (UniProt P49770)
inactive: saracatinib -0.023 | sotrastaurin 0.024 | alvocidib 0 | Tubastatin A 0.045 | [1] 0.063 | defactinib 0.02 | rucaparib 0.051 | [2] 0.024 | encorafenib 0.051 | [3] -0.049 | [4] -0.02 | filanesib 0.044 | zotarolimus 0.018 | idasanutlin -0.033 | alisertib -0.076 | [5] -0.048 | gefitinib 0.015 | [6] -0.071 | lapatinib 0.03 | pictilisib -0.012

EIF3M (UniProt Q7L2H7)
inactive: saracatinib 0.027 | sotrastaurin -0.173 | alvocidib -0.06 | Tubastatin A 0.027 | [1] 0.015 | defactinib -0.072 | rucaparib 0.096 | [2] -0.011 | encorafenib 0.075 | [3] -0.037 | [4] 0.096 | filanesib 0.035 | zotarolimus 0.1 | idasanutlin 0.03 | alisertib -0.001 | [5] 0.007 | gefitinib -0.026 | [6] -0.14 | lapatinib 0.005 | pictilisib 0.045

ELMOD2 (UniProt Q8IZ81)
inactive: saracatinib 0.01 | sotrastaurin -0.009 | alvocidib -0.088 | Tubastatin A -0.007 | [1] 0.044 | defactinib -0.051 | rucaparib -0.018 | [2] -0.069 | encorafenib 0.001 | [3] -0.025 | [4] -0.004 | filanesib -0.032 | zotarolimus 0 | idasanutlin -0.05 | alisertib -0.027 | [5] 0.059 | gefitinib -0.003 | [6] 0.021 | lapatinib -0.066 | pictilisib -0.003

EIF3D (UniProt O15371)
inactive: saracatinib -0.107 | sotrastaurin -0.257 | alvocidib 0.056 | Tubastatin A 0.06 | [1] 0.128 | defactinib -0.004 | rucaparib 0.217 | [2] 0.141 | encorafenib 0.137 | [3] -0.086 | [4] 0.105 | filanesib 0.156 | zotarolimus 0.101 | idasanutlin 0.062 | alisertib -0.036 | [5] 0.035 | gefitinib 0.029 | [6] -0.275 | lapatinib 0.081 | pictilisib -0.067

EFEMP1 (UniProt Q12805)
inactive: saracatinib 0.015 | sotrastaurin 0.116 | alvocidib 0.212 | Tubastatin A -0.065 | [1] -0.117 | [2] -0.131 | [4] 0.048 | filanesib -0.047 | zotarolimus -0.314 | idasanutlin 0.155 | [5] -0.071 | lapatinib -0.104 | pictilisib -0.329

EMC2 (UniProt Q15006)
inactive: saracatinib 0.002 | sotrastaurin 0.021 | alvocidib -0.024 | Tubastatin A 0.023 | [1] 0.005 | defactinib -0.02 | rucaparib -0.078 | [2] -0.032 | encorafenib -0.007 | [3] 0.006 | [4] 0.14 | filanesib -0.005 | zotarolimus 0.003 | idasanutlin -0.075 | alisertib -0.077 | [5] 0.009 | gefitinib 0.025 | [6] 0.032 | lapatinib 0.03 | pictilisib 0.002

EIF3B isoform 2 (UniProt P55884)
inactive: saracatinib -0.055 | sotrastaurin -0.189 | alvocidib 0.059 | Tubastatin A 0.036 | [1] 0.011 | defactinib 0 | rucaparib 0.196 | [2] 0.075 | encorafenib 0.173 | [3] -0.059 | [4] -0.012 | filanesib 0.086 | zotarolimus 0.051 | idasanutlin 0.034 | alisertib -0.161 | [5] -0.008 | gefitinib 0 | [6] -0.233 | lapatinib 0.05 | pictilisib -0.064

EIF3C (UniProt Q99613)
inactive: saracatinib -0.12 | sotrastaurin -0.287 | alvocidib 0.05 | Tubastatin A 0.125 | [1] 0.08 | defactinib -0.027 | rucaparib 0.205 | [2] 0.069 | encorafenib 0.157 | [3] -0.108 | [4] 0.088 | filanesib 0.069 | zotarolimus 0.057 | idasanutlin 0.007 | alisertib -0.057 | [5] 0.047 | gefitinib 0.019 | [6] -0.181 | lapatinib -0.012 | pictilisib -0.008

EIF2B4 isoform 2 (UniProt Q9UI10)
inactive: saracatinib 0.014 | sotrastaurin -0.008 | alvocidib -0.022 | Tubastatin A 0.129 | [1] 0.004 | defactinib 0.047 | rucaparib 0.046 | [2] 0.092 | encorafenib 0.116 | [3] -0.001 | [4] 0.013 | filanesib 0.068 | zotarolimus 0.076 | idasanutlin 0.042 | alisertib -0.081 | [5] 0.017 | gefitinib 0.057 | [6] -0.106 | lapatinib -0.02 | pictilisib -0.033

ELL (UniProt P55199)
inactive: saracatinib -0.006 | sotrastaurin -0.272 | alvocidib 0.011 | Tubastatin A 0.055 | [1] -0.124 | rucaparib 0.033 | [2] 0.001 | encorafenib 0.128 | filanesib 0.065 | zotarolimus -0.016 | idasanutlin 0.042 | gefitinib 0.094 | pictilisib -0.015

EFHD1 (UniProt Q9BUP0)
inactive: saracatinib 0.114 | sotrastaurin -0.073 | alvocidib 0.289 | Tubastatin A -0.103 | defactinib 0 | [2] -0.399 | [3] 0.097 | filanesib -0.05 | zotarolimus -0.138 | gefitinib -0.18 | pictilisib -0.06

ELP6 (UniProt Q0PNE2)
inactive: saracatinib 0.046 | sotrastaurin 0.021 | alvocidib 0.011 | Tubastatin A -0.008 | [1] 0.009 | defactinib -0.059 | rucaparib -0.011 | [2] 0.028 | encorafenib -0.005 | [3] -0.023 | [4] -0.052 | filanesib 0.007 | zotarolimus -0.013 | idasanutlin -0.052 | alisertib -0.056 | [5] 0.019 | gefitinib -0.002 | [6] 0.051 | lapatinib 0.038 | pictilisib 0.043

ENTPD6 (UniProt O75354)
inactive: saracatinib -0.062 | sotrastaurin 0.068 | alvocidib 0.011 | Tubastatin A -0.029 | [1] 0.026 | rucaparib 0.068 | [2] 0.061 | encorafenib 0.044 | filanesib 0.227 | zotarolimus 0.104 | idasanutlin 0.025 | alisertib -0.176 | [5] -0.1 | gefitinib -0.033 | [6] -0.038 | lapatinib 0.127 | pictilisib 0.099

EEFSEC (UniProt P57772)
inactive: saracatinib -0.05 | sotrastaurin -0.159 | alvocidib 0.008 | Tubastatin A -0.062 | [1] -0.055 | defactinib -0.034 | rucaparib 0.116 | [2] -0.017 | encorafenib -0.03 | [3] 0.005 | [4] -0.066 | filanesib -0.078 | zotarolimus 0.03 | idasanutlin 0.012 | alisertib 0.043 | [5] -0.009 | gefitinib 0 | [6] -0.092 | lapatinib -0.012 | pictilisib -0.083

EIF3H (UniProt O15372)
inactive: saracatinib -0.027 | sotrastaurin -0.063 | alvocidib 0.005 | Tubastatin A 0.014 | [1] 0.01 | defactinib -0.018 | rucaparib 0.078 | [2] -0.014 | encorafenib 0.061 | [3] -0.062 | [4] -0.003 | filanesib 0.038 | zotarolimus -0.049 | idasanutlin 0.02 | alisertib -0.033 | [5] 0.012 | gefitinib 0.017 | [6] -0.06 | lapatinib -0.005 | pictilisib -0.053

ENPP3 (UniProt O14638)
inactive: saracatinib -0.11 | sotrastaurin -0.071 | alvocidib 0 | [1] -0.012 | defactinib 0.009 | rucaparib 0.167 | [2] -0.161 | encorafenib 0.008 | [3] 0.029 | [4] -0.192 | filanesib 0.059 | zotarolimus 0.131 | idasanutlin 0.078 | alisertib 0.009 | [5] 0.055 | gefitinib -0.061 | [6] -0.095 | lapatinib -0.056 | pictilisib 0.141

Quoted from the results shown (two entries):
ELP6 (UniProt Q0PNE2)
inactive: saracatinib 0.046 | sotrastaurin 0.021 | alvocidib 0.011 | Tubastatin A -0.008 | [1] 0.009 | defactinib -0.059 | rucaparib -0.011 | [2] 0.028 | encorafenib -0.005 | [3] -0.023 | [4] -0.052 | filanesib 0.007 | zotarolimus -0.013 | idasanutlin -0.052 | alisertib -0.056 | [5] 0.019 | gefitinib -0.002 | [6] 0.051 | lapatinib 0.038 | pictilisib 0.043

ENTPD6 (UniProt O75354)
inactive: saracatinib -0.062 | sotrastaurin 0.068 | alvocidib 0.011 | Tubastatin A -0.029 | [1] 0.026 | rucaparib 0.068 | [2] 0.061 | encorafenib 0.044 | filanesib 0.227 | zotarolimus 0.104 | idasanutlin 0.025 | alisertib -0.176 | [5] -0.1 | gefitinib -0.033 | [6] -0.038 | lapatinib 0.127 | pictilisib 0.099
